The other results are listed elsewhere or left out.

Chains of the proteins cited; added tags and fusions are not shown.
UniProt Q0JBA9, entry or part of it: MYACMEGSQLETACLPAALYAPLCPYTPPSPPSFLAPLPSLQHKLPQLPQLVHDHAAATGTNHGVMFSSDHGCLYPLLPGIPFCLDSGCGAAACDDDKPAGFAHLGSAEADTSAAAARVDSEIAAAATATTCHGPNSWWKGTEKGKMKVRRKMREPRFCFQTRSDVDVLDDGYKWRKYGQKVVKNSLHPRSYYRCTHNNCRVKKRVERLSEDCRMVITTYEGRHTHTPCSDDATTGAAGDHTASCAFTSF

The test concerns the target OsWRKY34 (Oryza sativa, UniProt Q0JBA9 1-250). Nature of the test: protein-binding microarray (RPBM); PBS, 2% BSA, 51.3 ng/ul salmon testes DNA, 50 uM zinc acetate, 200 nM TF, 25 C, 1 h; high values mean tight binding. The note with it: protein: recombinant; tags: N-terminal polyhistidine and DsRed monomer fusion (pET32a); label: CyDye5-dUTP incorporated in the synthesized complementary strand; 3' TTTTT single-stranded linker to array surface; dsDNA, one strand shown. In short, it runs like this:
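Binding signal is reported as fluorescence intensity per feature (arbitrary units) from an Axon 4000B scanner. Incubation used 200 nM of each Ni–NTA-purified, N-terminally polyhistidine- and DsRed-fused transcription factor from E. coli BL21-CodonPlus on a double-stranded custom Agilent array for 1 h at 25 °C, with 50 µM zinc acetate in the buffer, followed by washing.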
In the case of “CAAATAAAACCCCTTTGCCTGTTAGCTTCGGCCACTCTCACGGAGTCACCTAGTGCAG”, the binding signal was 8240 fluorescence intensity (a.u.). Take “TCCGTTTACATTCGTTACACTACAACTTTTTCCTTGTTATCGGAGTCACCTAGTGCAG”: the binding signal was 9360 fluorescence intensity (a.u.). For the sequence “CTATATCACCTAATCTTTGACATGTATTTCTTTTTTATGACGGAGTCACCTAGTGCAG”, the binding signal is 8410 fluorescence intensity (a.u.).

In the case of “GTCTCCGTCTCCGTCCTCTCTCGCTTCCGTACTACTCCACCGGAGTCACCTAGTGCAG”, the binding signal is 10600 fluorescence intensity (a.u.).

With “GTACATGGCACAGCTCTCTCATTCCGGTTCCTACCAAACCCGGAGTCACCTAGTGCAG”, the binding signal is 9110 fluorescence intensity (a.u.). As for “TTTTAGAATTGGATCTTGTGGGGTTGAAATTTTAATTTATCGGAGTCACCTAGTGCAG”, the binding signal is 9180 fluorescence intensity (a.u.). “AATCGTGGATGGGGAATCGGTGACGCGCGGGTGGGGCGACCGGAGTCACCTAGTGCAG”: the binding signal is 8360 fluorescence intensity (a.u.). For “AGCGCCCCGTTGCCGCAGCTGCTGCTCCCTCTGCTGCTTCCGGAGTCACCTAGTGCAG”, the binding signal was 10900 fluorescence intensity (a.u.). The figure for “TCCGTTGACTCCTACCTCCTTACACTCGGCTTACCTCTCTCGGAGTCACCTAGTGCAG” is 16300 fluorescence intensity (a.u.); for “AAATGGGGAGGAGTGCGGATGACATGTGGGTCCCACAAATCGGAGTCACCTAGTGCAG” it is 8410 fluorescence intensity (a.u.); for “GGGGTTTGTCTAAAATTCGAGCTTGGTTTGCTTCCGGTTTCGGAGTCACCTAGTGCAG” it is 13400 fluorescence intensity (a.u.). Then “CAATCATCAGCCACGTCCGCCGCCGCTTCAGCTGGATCGGCGGAGTCACCTAGTGCAG”, with 8220 fluorescence intensity (a.u.); and “TCATCAGTTCACAAATTAAGTCGTTATTTCGTTTCGTTTCCGGAGTCACCTAGTGCAG”, with 9350 fluorescence intensity (a.u.); and “TAGATGGGCACTCCGCCACTCCGTAGTTCAGTTGTACCATCGGAGTCACCTAGTGCAG”, with 8290 fluorescence intensity (a.u.). Then “TGCTCTGAACTCCCAACCGTCCCAACCGACGCCGGCCATCCGGAGTCACCTAGTGCAG”, with 8090 fluorescence intensity (a.u.). For the sequence “CGCTCATCCTCTTGCTTTTTGCTTGCCGTGGCGAACGTCGCGGAGTCACCTAGTGCAG”, the binding signal is 10900 fluorescence intensity (a.u.). Then “CATATTCTTAATGGGGTATCTGTCGGGTTCAAATGTAGAACGGAGTCACCTAGTGCAG”, with 10900 fluorescence intensity (a.u.); and “CCTCTTCTGTACCCTACTCTCTCGCTCCCTTCCGATTTCCCGGAGTCACCTAGTGCAG”, with 9450 fluorescence intensity (a.u.). With “TCCATCGATCGGTTTGGTCCCCGCCAATCACCCCAACCATCGGAGTCACCTAGTGCAG”, the binding signal was 9830 fluorescence intensity (a.u.). For the sequence “CTCTCCGTGCATCTATATAAACTGGCCCTGATCAATCTCACGGAGTCACCTAGTGCAG”, the binding signal is 9650 fluorescence intensity (a.u.).

Consider “CCACCCGCTCATCTATATAAACCCGCCCCGGCCGGCCACCCGGAGTCACCTAGTGCAG”, for which the binding signal was 9920 fluorescence intensity (a.u.). Then “AATTCGTCCTCGACTCGTCTTCGTCTTCGCCTCGTCGTCCCGGAGTCACCTAGTGCAG”, with 12700 fluorescence intensity (a.u.); and “TCTCAATGTGTAGGTTGAATTTCAATTTGATTTTGATTTTCGGAGTCACCTAGTGCAG”, with 9250 fluorescence intensity (a.u.). Turning to “CCGTATCATAATCACGTCCTGCCACCCTTTTAACTAATCACGGAGTCACCTAGTGCAG”, the binding signal was 10500 fluorescence intensity (a.u.). Then “CTTCATTTCCATGTCCTGTTTGTACTAGGTTATTGGAATCCGGAGTCACCTAGTGCAG”, with 8430 fluorescence intensity (a.u.); and “TTGGGGTTCGTGGGGTCGAGAGGAAGGTGCGTGATCATACCGGAGTCACCTAGTGCAG”, with 11500 fluorescence intensity (a.u.); and “TCTCTCTCACTCTTCCGGTCTTCCCTGGGCAGGCTAGCCGCGGAGTCACCTAGTGCAG”, with 8840 fluorescence intensity (a.u.). Then “CGTTTCTCATTAGTATGCCATATTAAAACTGTTATCCATTCGGAGTCACCTAGTGCAG”, with 8310 fluorescence intensity (a.u.); and “GGCTGCGCGCGACTCGCGGTCGACGAGGGTGGGGCCGCCGCGGAGTCACCTAGTGCAG”, with 8220 fluorescence intensity (a.u.); and “AATTTTTATTCCTGTTTCCGTCGTGGCCCATCTGTGATGACGGAGTCACCTAGTGCAG”, with 8350 fluorescence intensity (a.u.). Then “GCTAGATTCATTCCGCGAGGAGGTGCAGGGTTGTTTTCTGCGGAGTCACCTAGTGCAG”, with 9650 fluorescence intensity (a.u.); and “CTACGGGCCTGCCTCATCCAGCCATCCTTGTCTCAACTACCGGAGTCACCTAGTGCAG”, with 10500 fluorescence intensity (a.u.); and “ATTGTTGTCATGTGTTGAAATATTATCATATATTAATATTCGGAGTCACCTAGTGCAG”, with 8540 fluorescence intensity (a.u.). In the case of “TTGTGTGGTGTGGTTGAGCTGAGGTGTAGTTAGGACAGTGCGGAGTCACCTAGTGCAG”, the binding signal was 8320 fluorescence intensity (a.u.). Turning to “ACACCATTGACTTTTTAGCATATGTTTAACCGTTTGTCTTCGGAGTCACCTAGTGCAG”, the binding signal is 13900 fluorescence intensity (a.u.). The figure for “TAGATCGCACACCGCCAATTCGTCATGTTTGACGTACAACCGGAGTCACCTAGTGCAG” is 8680 fluorescence intensity (a.u.); for “CAACAACAACACACAGCAACAGGCCTACCATATCGCGAGACGGAGTCACCTAGTGCAG” it is 8590 fluorescence intensity (a.u.). Take “TCCAGTTTATTCAGGGCTTGCCACACGTCCATCCAGTATCCGGAGTCACCTAGTGCAG”: the binding signal was 9740 fluorescence intensity (a.u.). On to “CCTTATTTCTTGCTCCTGACTCAATCGCCTCCACCGACCACGGAGTCACCTAGTGCAG”, for which the binding signal was 8550 fluorescence intensity (a.u.). Then “GCCACGGGCAGAATTAGCGCGGCGCGGGCGGGGTGGTTAGCGGAGTCACCTAGTGCAG”, with 9400 fluorescence intensity (a.u.); and “CATATCTGCATGCGTTGTTTGACCTGCCTACATATATTTACGGAGTCACCTAGTGCAG”, with 8930 fluorescence intensity (a.u.); and “TAATTCCCAACTCCTTCCGCCTCGTTTTTCATGCGCACGCCGGAGTCACCTAGTGCAG”, with 8510 fluorescence intensity (a.u.).
